Experimental data: PubChem BioAssay AID2685 (National Center for Advancing Translational Sciences (NCATS), 2010)
This is one part of the list. Shown are side measurements of this screen, not its main read-out; they come without a call. Compounds called inactive in the main read-out are mostly missing here. Words in brackets tell the shape of the fitted curve; partial curves, single points and poor fits give uncertain potencies.

Experiment: qHTS Assay for Lipid Storage Modulators in Drosophila S3 Cells;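 on cell number change: cells counted by Cell Tracker Red CMTPX staining in the red channel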
Conditions: BODIPY lipid droplet fluorescence, 18-24 h; for cell number change: measured here: cell count max response, cells fed with added oleic acid
Procedure, shortened: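 Drosophila S3 cells got compounds at several concentrations plus oleic acid (400 uM solution). Laser-scanning cytometry with 488 nm excitation read lipid droplets at 500-530 nm and cells at 575-640 nm. Percent activity was relative to 20 uM Triacsin C.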

[1] = measured here: cell number channel AC50, cells fed with added oleic acid
[2] = measured here: lipid fluorescence (Fed channel) AC50, cells fed with added oleic acid

| SMILES | cell number change | AC50 [1] | AC50 [2] |
| --- | --- | --- | --- |
| CC(C)c1ccc(NC(=S)N(C)CCc2ccccn2)cc1 | -47.7% | – | – |
| CCNC(=S)N1CCCC(c2nc3ccc(C)cc3[nH]2)C1 (stereo not drawn) | 24.1% | 0.731 µM [rising, full curve, poor fit] | – |
| COc1ccccc1NC(=O)CN1CCCCCC1 | 41.1% | – | – |
| COC(=O)c1cccnc1-n1c(=O)c2cccnc2n(CC(=O)Nc2ccc(Br)cc2)c1=O | 70.1% | – | – |
| O=C(Cc1c(F)cccc1Cl)NCC1CCCO1 (stereo not drawn) | -24.5% | – | 0.92 µM [falling, full curve, poor fit] |
| CCOC(=O)Cc1cnc(NC(=O)CSc2nc(C)c(CC)c(=O)[nH]2)s1 | 18.7% | 0.731 µM [falling, single point] | 0.82 µM [falling, single point] |
| O=C(Nc1ccc2c(c1)OCO2)O[C@@H]1C[C@H]2CCCC(=O)N3CC[C@@H](C1)[C@@H]23 | 22.8% | – | – |
| Cc1cc(NC(=S)NC(=O)c2ccccc2)ccc1-c1cc2ccccc2oc1=O | 11.1% | 0.92 µM [rising, full curve, poor fit] | 0.259 µM [rising, full curve, poor fit] |
| O=C(NCCC1=CCCCC1)C(=O)NCC1OCCCN1S(=O)(=O)c1ccc(F)cc1 (stereo not drawn) | 42.3% | – | 0.731 µM [falling, single point] |
| COC(=O)CC1C(=O)NCCN1C(=O)c1c(F)cccc1F (stereo not drawn) | -17.1% | – | 6.51 µM [rising, single point] |
| NC(=O)C1CCN(C(=O)c2ccc3c(=O)n(Cc4cccc(Br)c4)c(=S)[nH]c3c2)CC1 | 9.4% | – | 29.1 µM [falling, single point] |
| CC[C@]1(c2ccccc2)C(=O)N(C(=O)OC)N1C(=O)OC | -0.599% | – | 23.1 µM [falling, single point] |
| Cc1ccc(S(=O)(=O)N2CCC(C(=O)Nc3ccc(C(C)C)cc3)CC2)cc1 | -18.2% | – | 1.16 µM [rising, full curve, poor fit] |
| NC(=O)C1(C(N)=O)OC1c1ccc(Cl)c(Cl)c1 (stereo not drawn) | -27.2% | – | 0.651 µM [falling, full curve] |
| C1CC1Cc1noc(CN2CCN(CC3CC3)CC2)n1 | -11.8% | – | 6.51 µM [falling, single point] |
| Cc1ccc(/C=N/NC(=O)c2nnn(-c3nonc3N)c2C(C)C)s1 | 6.6% | – | 0.731 µM [rising, single point] |
| CN(C)CCCN(C(=O)c1ccc([N+](=O)[O-])o1)c1nc2cc3c(cc2s1)OCO3 | 11.4% | – | 2.06 µM [rising, partial curve, poor fit] |
| N#C/C(=C(/O)COc1ccccc1)c1nc2ccccc2s1 | -13.2% | – | 29.1 µM [falling, partial curve, poor fit] |
| Cc1cc(C)c(S(=O)(=O)Nc2cccc(-n3cnnn3)c2)c(C)c1 | -16.5% | – | 6.51 µM [falling, single point] |

| SMILES | cell number change | AC50 [1] | AC50 [2] |
| --- | --- | --- | --- |
| Cc1ccc(NC(=O)COC(=O)CNC(=O)c2ccc(Br)cc2)c(C)c1 | 3.38% | – | 0.731 µM [falling, single point] |
| O=C(Oc1ccccc1)c1cccc2cccnc12 | -1.66% | – | 20.6 µM [falling, single point] |
| O=C(Nc1ccccc1C(=O)NCc1ccco1)c1ccccc1 | 21.9% | – | 2.06 µM [falling, partial curve] |
| CC(C)c1ccc(N(CC(=O)NCC2CCCO2)C(=O)CCC(=O)Nc2nccs2)cc1 (stereo not drawn) | 13.2% | – | – |
| CN1CCN(C(=O)c2ccc(CNS(=O)(=O)c3ccc(F)c(Cl)c3)cc2)CC1 | 30% | 29.1 µM [rising, single point] | – |
| CC(=O)Oc1ccc(C(=O)Nc2nnc(C)s2)cc1 | 7.98% | – | 0.00651 µM [rising, full curve, poor fit] |
| Cc1ccnc(N2CCC(C(=O)NCc3ccc(F)cc3)CC2)n1 | -1.93% | – | 0.411 µM [falling, single point] |
| CC(NC(=O)c1ccco1)C(c1cccs1)N1CCN(c2ccc(F)cc2)CC1 (stereo not drawn) | -1.37% | 2.31 µM [falling, partial curve] | – |
| COC(=O)c1sccc1NC(=O)Nc1cccc([N+](=O)[O-])c1 | -41.1% | 23.1 µM [falling, single point] | 29.1 µM [falling, single point] |
| O=C1c2ccc3c4c(ccc(c24)C(=O)N1NC(=O)C(F)(F)F)CC3 | 144% | 9.2 µM [rising, partial curve] | 29.1 µM [rising, partial curve] |
| Nc1nonc1-n1nnc(C(=O)N/N=C/c2ccccc2)c1CSc1ccc(Cl)cc1 | 22.6% | – | 29.1 µM [rising, single point] |
| Cc1[nH]n(C(C)(C)C)c(=O)c1Sc1ccccc1 | 59.3% | 5.17 µM [rising, full curve] | 0.82 µM [rising, single point] |
| S=C(Nc1cccc(Cl)c1)Nc1cccc2cnccc12 | -2.12% | – | 0.146 µM [rising, full curve, poor fit] |
| NCCCn1c(C(=O)c2cc(Cl)c(N)c(Cl)c2)c2ccc(C(F)(F)F)cc2[n+]1[O-] | -30.2% | 3.26 µM [falling, full curve, poor fit] | 29.1 µM [falling, single point] |
| O=C(/C=C/c1ccccc1)/C=C/c1ccccc1 | -30.5% | 9.2 µM [falling, partial curve] | 18.4 µM [falling, single point] |
| COc1ccc(Nc2n[nH]c(C)c2[N+](=O)[O-])cc1 | 40.7% | – | – |
| Cc1cc(C)n(-c2ccc(C(=O)Nc3ccc(S(=O)(=O)NCc4ccco4)cc3)cc2)n1 | -64.4% | 29.1 µM [falling, single point] | – |
| Cc1ccc(NC(=O)COc2ccccc2C(=O)NCc2ccccc2)cc1 | 4.63% | 4.61 µM [falling, single point] | 6.51 µM [falling, single point] |
| CCN(CC)S(=O)(=O)c1cc(C(=O)OCC(=O)Nc2cccc(Br)c2)ccc1F | -18.5% | – | 0.92 µM [falling, full curve] |

Single records (already shown):
`O=C1c2ccc3c4c(ccc(c24)C(=O)N1NC(=O)C(F)(F)F)CC3` as listed: cell number change: 144%; AC50 [1]: 9.2 µM [rising, partial curve]; AC50 [2]: 29.1 µM [rising, partial curve]
`Cc1ccc(NC(=O)COc2ccccc2C(=O)NCc2ccccc2)cc1` as listed: cell number change: 4.63%; AC50 [1]: 4.61 µM [falling, single point]; AC50 [2]: 6.51 µM [falling, single point]
`CCN(CC)S(=O)(=O)c1cc(C(=O)OCC(=O)Nc2cccc(Br)c2)ccc1F` as listed: cell number change: -18.5%; AC50 [2]: 0.92 µM [falling, full curve]
